PubChem BioAssay AID686938, Drosophila RNAi Screening Center, 2013

Test: 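Knock-downs reducing store-operated calcium influx in Drosophila cells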 (primary screen)
Cells: Drosophila S2R+ cells
Knock-down reagent: long dsRNA against Drosophila genes, about 0.25 µg dsRNA per well, roughly 10,000 cells
Timing: 5 days of knock-down before the calcium assay
Treatment: thapsigargin (SERCA pump blocker) to empty calcium stores; entry signal taken 4 min after adding it
Detection: 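Duplicate raw fluo-4 intensities per well from a plate reader, at rest and four minutes after thapsigargin emptied calcium stores; entry-to-rest ratio filled for only some wells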
Reading the numbers: calcium entry signal: higher = stronger calcium signal after store depletion; entry to resting ratio: higher = more calcium entry relative to resting level; resting calcium signal: higher = higher resting calcium signal
Active means: 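Called when the plate z-score of the entry-to-rest ratio, mean of duplicates, falls below −3; wells with low overall dye signal (Fmax z below −2) or more than five off-targets excluded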
Meaning of the calls: active = strongly reduced calcium entry; inactive = no strong reduction
In all, the deposit lists about 23,000 reagents; shown is a random part of those that have a named target and a result. Of all reagents, 75 (0.33%) are marked active. 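Raw plate signals without normalisation; calls rest on plate z-scores that were not deposited; ratio present for only 364 wells.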 Entries without a mark were called inactive. Reagents against one gene are numbered here. Not given: the dose of the treatment.

CG10909
- calcium entry signal, replicate 1 (fluorescence units): 3.05e7
- calcium entry signal, replicate 2 (fluorescence units): 3.08e7
- resting calcium signal, replicate 1 (fluorescence units): 1.56e7
- resting calcium signal, replicate 2 (fluorescence units): 1.66e7

CG13744
- calcium entry signal, replicate 1 (fluorescence units): 4.23e7
- calcium entry signal, replicate 2 (fluorescence units): 3.74e7
- resting calcium signal, replicate 1 (fluorescence units): 1.90e7
- resting calcium signal, replicate 2 (fluorescence units): 1.54e7

yellow-h
- calcium entry signal, replicate 1 (fluorescence units): 3.74e7
- calcium entry signal, replicate 2 (fluorescence units): 5.25e7
- entry to resting ratio: 2.1
- resting calcium signal, replicate 1 (fluorescence units): 1.77e7
- resting calcium signal, replicate 2 (fluorescence units): 2.02e7

PIG-A
- calcium entry signal, replicate 1 (fluorescence units): 3.29e7
- calcium entry signal, replicate 2 (fluorescence units): 2.41e7
- resting calcium signal, replicate 1 (fluorescence units): 1.48e7
- resting calcium signal, replicate 2 (fluorescence units): 1.35e7

wg
- calcium entry signal, replicate 1 (fluorescence units): 3.58e7
- calcium entry signal, replicate 2 (fluorescence units): 3.27e7
- resting calcium signal, replicate 1 (fluorescence units): 1.78e7
- resting calcium signal, replicate 2 (fluorescence units): 1.56e7

fj
- calcium entry signal, replicate 1 (fluorescence units): 4.88e7
- calcium entry signal, replicate 2 (fluorescence units): 4.47e7
- resting calcium signal, replicate 1 (fluorescence units): 2.11e7
- resting calcium signal, replicate 2 (fluorescence units): 2.05e7

CG13116 #1
- calcium entry signal, replicate 1 (fluorescence units): 2.85e7
- calcium entry signal, replicate 2 (fluorescence units): 2.96e7
- resting calcium signal, replicate 1 (fluorescence units): 1.39e7
- resting calcium signal, replicate 2 (fluorescence units): 1.45e7

CG13116 #2
- calcium entry signal, replicate 1 (fluorescence units): 3.50e7
- calcium entry signal, replicate 2 (fluorescence units): 3.58e7
- resting calcium signal, replicate 1 (fluorescence units): 2.19e7
- resting calcium signal, replicate 2 (fluorescence units): 1.76e7

CG3226
- calcium entry signal, replicate 1 (fluorescence units): 4.03e7
- calcium entry signal, replicate 2 (fluorescence units): 4.46e7
- resting calcium signal, replicate 1 (fluorescence units): 1.69e7
- resting calcium signal, replicate 2 (fluorescence units): 2.04e7

fs(2)ltoPP43
- calcium entry signal, replicate 1 (fluorescence units): 2.69e7
- calcium entry signal, replicate 2 (fluorescence units): 4.13e7
- resting calcium signal, replicate 1 (fluorescence units): 1.40e7
- resting calcium signal, replicate 2 (fluorescence units): 1.69e7

Pvr
- calcium entry signal, replicate 1 (fluorescence units): 3.11e7 (active)
- resting calcium signal, replicate 1 (fluorescence units): 2.46e7

AkhR
- calcium entry signal, replicate 1 (fluorescence units): 3.42e7
- resting calcium signal, replicate 1 (fluorescence units): 1.60e7

CG7985
- calcium entry signal, replicate 1 (fluorescence units): 4.87e7
- calcium entry signal, replicate 2 (fluorescence units): 4.12e7
- resting calcium signal, replicate 1 (fluorescence units): 2.29e7
- resting calcium signal, replicate 2 (fluorescence units): 1.91e7

side-V #1
- calcium entry signal, replicate 1 (fluorescence units): 4.18e7
- calcium entry signal, replicate 2 (fluorescence units): 5.49e7
- resting calcium signal, replicate 1 (fluorescence units): 2.07e7
- resting calcium signal, replicate 2 (fluorescence units): 2.72e7

side-V #2
- calcium entry signal, replicate 1 (fluorescence units): 5.44e7
- calcium entry signal, replicate 2 (fluorescence units): 3.22e7
- resting calcium signal, replicate 1 (fluorescence units): 2.63e7
- resting calcium signal, replicate 2 (fluorescence units): 1.60e7

side-V #3
- calcium entry signal, replicate 1 (fluorescence units): 2.84e7
- calcium entry signal, replicate 2 (fluorescence units): 4.65e7
- resting calcium signal, replicate 1 (fluorescence units): 1.47e7
- resting calcium signal, replicate 2 (fluorescence units): 2.18e7

Copied from the listing for reference:
CG13116 #2
- calcium entry signal, replicate 1 (fluorescence units): 3.50e7
- calcium entry signal, replicate 2 (fluorescence units): 3.58e7
- resting calcium signal, replicate 1 (fluorescence units): 2.19e7
- resting calcium signal, replicate 2 (fluorescence units): 1.76e7

CG3226
- calcium entry signal, replicate 1 (fluorescence units): 4.03e7
- calcium entry signal, replicate 2 (fluorescence units): 4.46e7
- resting calcium signal, replicate 1 (fluorescence units): 1.69e7
- resting calcium signal, replicate 2 (fluorescence units): 2.04e7
